This note sets out measurements from article PMC6759994.

No constants are given. Whether binding was seen depends on the method and setting. Binding seen in cells or lysates may run through a third protein. Binding calls can cover weak binding; strength is not graded here. Where a sequence is shown, tags or fusion partners need not be part of it.

Experiment [1] deals with T1, FtsZ with an HA tag, expressed in E. coli (Streptococcus mutans UA159) (UniProt Q8DVD9).
T1 sequence: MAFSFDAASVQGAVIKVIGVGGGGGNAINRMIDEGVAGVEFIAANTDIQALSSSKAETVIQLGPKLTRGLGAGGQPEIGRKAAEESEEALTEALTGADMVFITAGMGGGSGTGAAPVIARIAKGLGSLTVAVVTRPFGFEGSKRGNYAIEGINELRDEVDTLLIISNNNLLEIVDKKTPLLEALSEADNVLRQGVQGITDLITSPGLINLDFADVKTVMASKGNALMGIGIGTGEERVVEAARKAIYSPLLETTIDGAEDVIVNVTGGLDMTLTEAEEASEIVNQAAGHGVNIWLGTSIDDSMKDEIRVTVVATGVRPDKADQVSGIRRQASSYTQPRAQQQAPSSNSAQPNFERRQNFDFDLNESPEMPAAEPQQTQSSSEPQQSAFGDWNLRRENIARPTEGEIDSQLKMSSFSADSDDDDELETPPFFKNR
Description: co-IP; proteins co-expressed in E. coli BL21 from pET29b; 1 mg lysate protein immunoprecipitated with anti-HA antibodies, blot with anti-FLAG.

In experiment [2] the target is T2, FtsZ with a C-terminal HA tag, chromosomally encoded in S. mutans (strain FtsZHA) (Streptococcus mutans UA159) (UniProt Q8DVD9).
T2 sequence: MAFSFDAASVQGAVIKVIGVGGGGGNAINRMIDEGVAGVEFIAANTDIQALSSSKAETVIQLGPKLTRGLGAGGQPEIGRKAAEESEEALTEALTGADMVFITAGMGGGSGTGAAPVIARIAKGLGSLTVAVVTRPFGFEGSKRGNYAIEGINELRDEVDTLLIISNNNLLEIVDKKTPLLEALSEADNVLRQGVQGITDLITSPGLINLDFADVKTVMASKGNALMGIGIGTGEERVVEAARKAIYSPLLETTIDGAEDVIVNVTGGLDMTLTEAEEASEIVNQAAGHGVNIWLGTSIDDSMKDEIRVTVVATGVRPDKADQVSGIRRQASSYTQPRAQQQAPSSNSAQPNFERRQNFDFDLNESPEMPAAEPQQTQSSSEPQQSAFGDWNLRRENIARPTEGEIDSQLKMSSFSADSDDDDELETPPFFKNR
Description: co-IP; reciprocal: S. mutans crosslinked in vivo with formaldehyde; 1 mg cytoplasmic or membrane protein extract; anti-HA agarose (HA tagged proteins as baits), blot with anti-FLAG for RNase J2.

In experiment [3] the target is T3, RNA helicase CshA with a C-terminal HA tag, chromosomally encoded in S. mutans (strain CshAHA) (Streptococcus mutans UA159) (UniProt Q8DV90).
T3 sequence: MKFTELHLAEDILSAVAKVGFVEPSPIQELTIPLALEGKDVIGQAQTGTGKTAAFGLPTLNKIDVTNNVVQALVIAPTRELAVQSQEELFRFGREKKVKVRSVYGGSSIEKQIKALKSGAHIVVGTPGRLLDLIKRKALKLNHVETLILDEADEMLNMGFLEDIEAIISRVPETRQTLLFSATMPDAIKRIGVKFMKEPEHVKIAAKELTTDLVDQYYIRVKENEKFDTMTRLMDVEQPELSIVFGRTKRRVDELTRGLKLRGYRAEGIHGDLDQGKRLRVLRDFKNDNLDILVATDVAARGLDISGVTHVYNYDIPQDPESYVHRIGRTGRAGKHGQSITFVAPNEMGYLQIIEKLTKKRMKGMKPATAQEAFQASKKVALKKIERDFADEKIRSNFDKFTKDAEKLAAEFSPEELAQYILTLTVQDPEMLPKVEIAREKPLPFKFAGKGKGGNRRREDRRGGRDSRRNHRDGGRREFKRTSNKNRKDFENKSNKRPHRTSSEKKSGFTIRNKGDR
Described as above.

Experiment [4] has as its target RNase J2 with a C-terminal 3x FLAG tag, chromosomally encoded in S. mutans (strain J2F) (Streptococcus mutans UA159). The experiment in a line: co-IP; S. mutans crosslinked in vivo with formaldehyde; 1 mg cytoplasmic or membrane protein extract; anti-FLAG M2 affinity gel (RNase J2-3x FLAG as bait), blot with anti-HA.

Take “Full-length RNase J2 with a C-terminal 3x FLAG tag, expressed in E. coli (Streptococcus mutans UA159) (enzyme)”: the binding entry in experiment [1] is on record as “binds”.

For “RNase J2 with a C-terminal 3x FLAG tag, chromosomally encoded in S. mutans (strain J2F) (Streptococcus mutans UA159) (enzyme)”, the binding entry in experiment [2] is given as “binds weakly”; in experiment [3], “binds”.

B1: Putative homoserine dehydrogenase SMU_965 with a C-terminal HA tag, chromosomally encoded in S. mutans (strain 965HA) (enzyme, UniProt Q8DUG5 1-428)
chain: MSIKIGLLGFGTVASGMPFLLKENKDKITAASGTKLEIAKVLVKDDDEKKRLLAAGNDFNFVTNVDDILSDDDIAIVVELMGRIEPAKTFITKALEAGKHVVSANKDLIATHGKELIRLAQDKGVAFYYEAAVAGGIPILRTLANSLTSDKVTRILGVLNGTSNFMMTKMVDEGWTYEAALKKAQELGYAESDPTNDVEGIDAAYKAVILSQFGFGMTIDFDQVVHQGISSITPDDVAMAQQLGYVIKLVGSVEETPSGIFAEVSPTFLPKSHPLASVNDVMNAVFVESIGIGESMYYGPGAGQKPTATSVVADVIRIARRIKDGNVGKCFNEFIRETKIAHPDDVKSHYYFAINTADEKGKMLRLAEIFNSEDISFEQVLQQKANGEQARVVIITHSLSKSQLVNVTEKLQAVADFKLLNTFKVLGE
On to B1, for which, in experiment [4], the binding entry was “no binding”.

B2: Translation initiation factor IF-2 with a C-terminal HA tag, chromosomally encoded in S. mutans (strain InfBHA) (protein, UniProt Q8DVP9 1-916)
chain: MSKKRLYEIAKEIGKESKEIVEKAKSLGLEVKSHASSVEESDAKRIVESFTVSVEPKAVTPTSKVEKEAKAQEGSVAAEPKAAATKPAGRPRPQNRNFKAEREARAKAEAERRQNNGERRNQNKGQNNRQKDNRNHGSQDRRNDNRNNRNRQNDNRRDNRNHFQNRQEASKSQPTGPRFDFKARAAALKAEQNAEYSRQSETRFHEAQEAKRQAAQAKEKAKKLNQKEQPTVEAAATAAPQAQPQTVEQVTHPAAVDTRRKKQARPDKSRDFSHENEDGPKQNKHKKNRNKQNQVRNQKNSNWNKKNKKSKNNRNHNANLKPVTERKFHELPKEFEYTEGMTVAEIAKRIKREPAEIVKKLFMMGVMATQNQSLDADTIELLMVDYGIEAHQKVEVDTADIERFFVEDDYLNPKNMVERAPVVTIMGHVDHGKTTLLDTLRNSRIATGEAGGITQHIGAYQIEEGGKKITFLDTPGHAAFTSMRARGASVTDITILIVAADDGVMPQTIEAINHSKAADVPIIVAINKIDKPGANPERVIGELAEYGVISTAWGGDSEFVEISAKFGQNIEELLETVLLVAEIQELKADPTVRAIGTVIEARLDKGKGAVATLLVQQGTLHVQDPIVVGNTFGRVRAMTNDLGRRVKVAAPSTPVSITGLNEAPMAGDHFAVYEDEKAARAAGEERAKRALLKQRQLTHRVSLDNLFDTLKAGEVKSVNVIIKADVQGSVEALAASLLKIDVEGVKVNVVHSAVGAINESDITLAEASNAVIIGFNVRPTPQARQQAEADEVEIRLHSIIYKVIEEVEDAMKGMLDPEFEEKIIGEALIRETFKVSKVGTIGGFMVTNGKITRDSSARVIRDGVVVFDGKLASLKHYKDDVKEVGNGQEGGLMIENYNDIKIDDTIEAYIMEEIKR
Regarding B2, in experiment [4], the binding entry is listed as “no binding”.

B3: FtsZ with a C-terminal HA tag, chromosomally encoded in S. mutans (strain FtsZHA) (protein, UniProt Q8DVD9 1-434)
chain: MAFSFDAASVQGAVIKVIGVGGGGGNAINRMIDEGVAGVEFIAANTDIQALSSSKAETVIQLGPKLTRGLGAGGQPEIGRKAAEESEEALTEALTGADMVFITAGMGGGSGTGAAPVIARIAKGLGSLTVAVVTRPFGFEGSKRGNYAIEGINELRDEVDTLLIISNNNLLEIVDKKTPLLEALSEADNVLRQGVQGITDLITSPGLINLDFADVKTVMASKGNALMGIGIGTGEERVVEAARKAIYSPLLETTIDGAEDVIVNVTGGLDMTLTEAEEASEIVNQAAGHGVNIWLGTSIDDSMKDEIRVTVVATGVRPDKADQVSGIRRQASSYTQPRAQQQAPSSNSAQPNFERRQNFDFDLNESPEMPAAEPQQTQSSSEPQQSAFGDWNLRRENIARPTEGEIDSQLKMSSFSADSDDDDELETPPFFKNR
As for B3, the binding entry in experiment [4] is reported as “binds weakly”.

B4: RNA helicase CshA with a C-terminal HA tag, chromosomally encoded in S. mutans (strain CshAHA) (enzyme, UniProt Q8DV90 1-517)
chain: MKFTELHLAEDILSAVAKVGFVEPSPIQELTIPLALEGKDVIGQAQTGTGKTAAFGLPTLNKIDVTNNVVQALVIAPTRELAVQSQEELFRFGREKKVKVRSVYGGSSIEKQIKALKSGAHIVVGTPGRLLDLIKRKALKLNHVETLILDEADEMLNMGFLEDIEAIISRVPETRQTLLFSATMPDAIKRIGVKFMKEPEHVKIAAKELTTDLVDQYYIRVKENEKFDTMTRLMDVEQPELSIVFGRTKRRVDELTRGLKLRGYRAEGIHGDLDQGKRLRVLRDFKNDNLDILVATDVAARGLDISGVTHVYNYDIPQDPESYVHRIGRTGRAGKHGQSITFVAPNEMGYLQIIEKLTKKRMKGMKPATAQEAFQASKKVALKKIERDFADEKIRSNFDKFTKDAEKLAAEFSPEELAQYILTLTVQDPEMLPKVEIAREKPLPFKFAGKGKGGNRRREDRRGGRDSRRNHRDGGRREFKRTSNKNRKDFENKSNKRPHRTSSEKKSGFTIRNKGDR
Regarding B4, the binding result in experiment [4] is reported as “binds”.

B5: Cell division protein FtsA with an N-terminal HA tag, chromosomally encoded in S. mutans (strain FtsAHA) (protein, UniProt Q8DVE0 1-453)
chain: MARDGFFTGLDIGTSSIKVLVAEFINGSMNVIGVSNVKSSGVKDGIIIDIDTAAEAIKSAIKEAEEKAGMSISKVNVGLPANLLQIEPTQGMIPVPSESKEIKDEDVDSVVRSALTKSITPEREVISLIPEEFIVDGFQGIRDPRGMMGIRLEMRGLIYTGPSTILHNLRKTVERAGIEVENIIISPLALTKSVLNEGEREFGATVIDMGGGQTTVASMRAQELQFTNTYAEGGDYVTKDISKVLKTSHQVAEALKFNFGEANVAEASSTETVQVEVVGERNPVEITERYLSEIISARVRHLLDRIKQDLERGRLLDLPGGIVIVGGAAIMPGVVEIAQEIFGFNVKLHVPNQVGIRNPMFANIISIVEYVGTLTEVDILAQGAVSGDEKLRRKPIDIKPSGVAPKTRSFAQPQESTTLESQLEQLPPQQKEANEPKQKVGDRLRGIFGSMFD
For the molecule B5, in experiment [4], the binding entry is given as “no binding”.
